PMC5643326
These are yes or no findings as the source states them, for the method shown. Binding seen in cells or lysates may run through a third protein. A result given as binding can be weak or reduced; the word gives no strength. Sequences can lack the tags named with a protein.

Molecular target: T1, Sch9-FLAG (yeast) (UniProt P11792)
T1 sequence: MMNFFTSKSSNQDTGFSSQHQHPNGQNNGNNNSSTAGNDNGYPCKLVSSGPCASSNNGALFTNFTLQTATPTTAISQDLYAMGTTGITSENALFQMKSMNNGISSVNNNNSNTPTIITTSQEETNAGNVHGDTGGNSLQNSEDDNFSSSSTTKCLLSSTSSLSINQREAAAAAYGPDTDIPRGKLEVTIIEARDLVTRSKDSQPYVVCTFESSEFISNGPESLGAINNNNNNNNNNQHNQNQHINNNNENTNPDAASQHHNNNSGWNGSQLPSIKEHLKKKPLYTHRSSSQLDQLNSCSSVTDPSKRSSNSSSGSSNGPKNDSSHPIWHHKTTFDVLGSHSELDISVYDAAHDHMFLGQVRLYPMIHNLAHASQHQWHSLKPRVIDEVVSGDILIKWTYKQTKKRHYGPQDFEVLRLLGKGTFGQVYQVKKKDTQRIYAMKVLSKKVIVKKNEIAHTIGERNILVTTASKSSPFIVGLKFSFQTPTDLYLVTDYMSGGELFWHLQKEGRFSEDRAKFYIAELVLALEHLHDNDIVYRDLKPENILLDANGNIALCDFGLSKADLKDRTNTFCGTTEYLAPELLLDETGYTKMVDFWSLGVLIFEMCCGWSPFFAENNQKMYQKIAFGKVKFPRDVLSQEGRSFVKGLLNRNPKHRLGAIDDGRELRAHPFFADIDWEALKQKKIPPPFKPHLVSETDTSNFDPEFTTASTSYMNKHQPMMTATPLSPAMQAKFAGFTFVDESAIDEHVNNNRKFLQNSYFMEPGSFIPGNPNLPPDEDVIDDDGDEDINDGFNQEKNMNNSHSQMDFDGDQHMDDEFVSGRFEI
Assay: co-IP; Sch9-FLAG from cleared glass bead lysate (30-35 mg total protein) of Δsch9 + pYEPlac195-Sch9-FLAG cells bound to anti-FLAG M2 beads, 1 h at 4 °C; 20 mM HEPES-KOH, 150 mM potassium acetate, 2 mM magnesium acetate, 10% glycerol, pH 7.5; wash with 0.1% Triton X-100, then without detergent; immunoblot with α-Sch9, α-Ssb, α-Maf1; control: untagged Sch9

binding: binds
Substance: Ssa (yeast (endogenous in yeast cells))
